In PMC6331727:
Numbering of substitutions follows the chain as printed. Names may count otherwise. Results are given in words; binding and its absence hold for the method and conditions named. In cells and extracts the contact can be indirect. Binding calls can cover weak binding; strength is not graded here.

B1: Human Prominin-1 (Prom1/CD133), splice variant s2 (protein, UniProt O43490 20-865)
chain: GGQPSSTDAPKAWNYELPATNYETQDSHKAGPIGILFELVHIFLYVVQPRDFPEDTLRKFLQKAYESKIDYDKPETVILGLKIVYYEAGIILCCVLGLLFIILMPLVGYFFCMCRCCNKCGGEMHQRQKENGPFLRKCFAISLLVICIIISIGIFYGFVANHQVRTRIKRSRKLADSNFKDLRTLLNETPEQIKYILAQYNTTKDKAFTDLNSINSVLGGGILDRLRPNIIPVLDEIKSMATAIKETKEALENMNSTLKSLHQQSTQLSSSLTSVKTSLRSSLNDPLCLVHPSSETCNSIRLSLSQLNSNPELRQLPPVDAELDNVNNVLRTDLDGLVQQGYQSLNDIPDRVQRQTTTVVAGIKRVLNSIGSDIDNVTQRLPIQDILSAFSVYVNNTESYIHRNLPTLEEYDSYWWLGGLVICSLLTLIVIFYYLGLLCGVCGYDRHATPTTRGCVSNTGGVFLMVGVGLSFLFCWILMIIVVLTFVFGANVEKLICEPYTSKELFRVLDTPYLLNEDWEYYLSGKLFNKSKMKLTFEQVYSDCKKNRGTYGTLHLQNSFNISEHLNINEHTGSISSELESLKVNLNIFLLGAAGRKNLQDFAACGIDRMNYDSYLAQTGKSPAGVNLLSFAYDLEAKANSLPPGNLRNSLKRDAQTIKTIHQQRVLPIEQSLSTLYQSVKILQRTGNGLLERVTRILASLDFAQNFITNNTSSVIIEETKKYGRTIIGYFEHYLQWIEFSISEKVASCKPVATALDTAVDVFLCSYIIDPLNLFWFGIGKATVFLLPALIFAVKLAKYYRRMDSEDVYDDVETIPMKNMENGNNGYHKDHVYGIHNPVMTSPSQH
B2: Human Prominin-1 K138Q mutant (protein, UniProt O43490 20-865)
chain: B1 chain with K119Q

Columns and labels:
[1] = molecular target: T1, Human Prominin-1 (Prom1/CD133), splice variant s2 (human) (UniProt O43490); assay: co-IP; immunoisolation with anti-CD133 (AC133) magnetic MicroBeads from pre-cleared 0.2% Triton X-100 lysate of Prom1-transfected MDCK cells, 1.5 h at 4°C; anti-FITC MicroBeads as negative control; immunoblot for Prom1 and Arl13b, ratio quantified
T1 sequence: B1 chain

[2] = molecular target: T2, Human Prominin-1 K138Q mutant (human) (UniProt O43490); assay: as above
T2 sequence: B1 chain with K119Q

[3] = molecular target: ADP-ribosylation factor-like protein 13B (Arl13b) (dog (endogenous in MDCK)); assay: co-IP; immunoisolation with anti-Arl13b pAb and uMACS Protein A MicroBeads from pre-cleared 0.2% Triton X-100 lysate of Prom1-transfected MDCK cells, 4°C; immunoblot for Prom1 and Arl13b

| Molecule | binding [1] | binding [2] | binding [3] |
| --- | --- | --- | --- |
| ADP-ribosylation factor-like protein 13B (Arl13b) (dog (endogenous in MDCK)) | binds | binds | – |
| B1 | – | – | binds |
| B2 | – | – | binds |
